These are yes or no findings as the source states them, for the method shown. In cells and extracts the contact can be indirect. A yes stands for co-enrichment or nearness to the bait. Other partners may have been found. Where a sequence is shown, tags or fusion partners need not be part of it.

This assay concerns the target T1, Flag-tagged USP36 (UniProt Q9P275).
T1 sequence: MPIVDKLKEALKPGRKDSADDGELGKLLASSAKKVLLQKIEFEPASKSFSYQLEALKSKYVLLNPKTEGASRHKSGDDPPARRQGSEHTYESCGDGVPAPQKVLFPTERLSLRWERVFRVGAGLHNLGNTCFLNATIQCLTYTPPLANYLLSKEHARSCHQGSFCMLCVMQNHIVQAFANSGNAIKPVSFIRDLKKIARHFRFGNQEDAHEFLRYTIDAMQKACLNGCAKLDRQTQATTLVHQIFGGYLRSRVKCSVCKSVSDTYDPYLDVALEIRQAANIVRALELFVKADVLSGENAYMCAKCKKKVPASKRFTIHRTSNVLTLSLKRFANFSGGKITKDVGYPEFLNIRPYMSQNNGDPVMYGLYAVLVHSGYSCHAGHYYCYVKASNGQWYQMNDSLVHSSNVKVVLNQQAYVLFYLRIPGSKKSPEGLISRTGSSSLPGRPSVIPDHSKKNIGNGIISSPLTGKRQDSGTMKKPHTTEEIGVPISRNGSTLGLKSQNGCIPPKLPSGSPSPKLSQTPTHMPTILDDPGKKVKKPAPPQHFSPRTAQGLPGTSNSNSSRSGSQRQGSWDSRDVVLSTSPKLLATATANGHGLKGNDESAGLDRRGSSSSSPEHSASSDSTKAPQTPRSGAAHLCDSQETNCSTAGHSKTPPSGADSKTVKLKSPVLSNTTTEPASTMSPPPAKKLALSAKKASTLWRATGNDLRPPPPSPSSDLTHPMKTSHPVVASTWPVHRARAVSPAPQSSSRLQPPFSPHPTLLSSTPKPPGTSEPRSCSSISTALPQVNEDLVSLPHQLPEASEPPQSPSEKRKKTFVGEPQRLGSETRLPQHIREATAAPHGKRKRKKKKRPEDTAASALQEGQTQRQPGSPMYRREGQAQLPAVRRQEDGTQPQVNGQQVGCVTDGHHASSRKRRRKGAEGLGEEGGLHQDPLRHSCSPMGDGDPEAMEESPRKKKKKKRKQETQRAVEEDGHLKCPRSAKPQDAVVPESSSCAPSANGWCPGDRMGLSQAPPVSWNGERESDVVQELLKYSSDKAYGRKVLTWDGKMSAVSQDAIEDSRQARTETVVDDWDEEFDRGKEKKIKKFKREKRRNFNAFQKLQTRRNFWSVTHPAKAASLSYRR
The experiment in a line: affinity purification with mass spectrometry; immunoprecipitates from control 293 and 293-Flag-USP36 cells by anti-Flag antibody, mass spectrometry.

B1: endogenous Las1L (enzyme, UniProt Q9Y4W2 1-734)
chain: MSWESGAGPGLGSQGMDLVWSAWYGKCVKGKGSLPLSAHGIVVAWLSRAEWDQVTVYLFCDDHKLQRYALNRITVWRSRSGNELPLAVASTADLIRCKLLDVTGGLGTDELRLLYGMALVRFVNLISERKTKFAKVPLKCLAQEVNIPDWIVDLRHELTHKKMPHINDCRRGCYFVLDWLQKTYWCRQLENSLRETWELEEFREGIEEEDQEEDKNIVVDDITEQKPEPQDDGKSTESDVKADGDSKGSEEVDSHCKKALSHKELYERARELLVSYEEEQFTVLEKFRYLPKAIKAWNNPSPRVECVLAELKGVTCENREAVLDAFLDDGFLVPTFEQLAALQIEYEDGQTEVQRGEGTDPKSHKNVDLNDVLVPKPFSQFWQPLLRGLHSQNFTQALLERMLSELPALGISGIRPTYILRWTVELIVANTKTGRNARRFSAGQWEARRGWRLFNCSASLDWPRMVESCLGSPCWASPQLLRIIFKAMGQGLPDEEQEKLLRICSIYTQSGENSLVQEGSEASPIGKSPYTLDSLYWSVKPASSSFGSEAKAQQQEEQGSVNDVKEEEKEEKEVLPDQVEEEEENDDQEEEEEDEDDEDDEEEDRMEVGPFSTGQESPTAENARLLAQKRGALQGSAWQVSSEDVRWDTFPLGRMPGQTEDPAELMLENYDTMYLLDQPVLEQRLEPSTCKTDTLGLSCGVGSGNCSNSSSSNFEGLLWSQGQLHGLKTGLQLF
Take B1: the binding entry was “binds”.

B2: endogenous Nol9 (enzyme, UniProt Q5SY16 1-702)
chain: MADSGLLLKRGSCRSTWLRVRKARPQLILSRRPRRRLGSLRWCGRRRLRWRLLQAQASGVDWREGARQVSRAAAARRPNTATPSPIPSPTPASEPESEPELESASSCHRPLLIPPVRPVGPGRALLLLPVEQGFTFSGICRVTCLYGQVQVFGFTISQGQPAQDIFSVYTHSCLSIHALHYSQPEKSKKELKREARNLLKSHLNLDDRRWSMQNFSPQCSIVLLEHLKTATVNFITSYPGSSYIFVQESPTPQIKPEYLALRSVGIRREKKRKGLQLTESTLSALEELVNVSCEEVDGCPVILVCGSQDVGKSTFNRYLINHLLNSLPCVDYLECDLGQTEFTPPGCISLLNITEPVLGPPFTHLRTPQKMVYYGKPSCKNNYENYIDIVKYVFSAYKRESPLIVNTMGWVSDQGLLLLIDLIRLLSPSHVVQFRSDHSKYMPDLTPQYVDDMDGLYTKSKTKMRNRRFRLAAFADALEFADEEKESPVEFTGHKLIGVYTDFAFRITPRNRESHNKILRDLSILSYLSQLQPPMPKPLSPLHSLTPYQVPFNAVALRITHSDVAPTHILYAVNASWVGLCKIQDDVRGYTNGPILLAQTPICDCLGFGICRGIDMEKRLYHILTPVPPEELRTVNCLLVGAIAIPHCVLKCQRGIEGTVPYVTTDYNFKLPGASEKIGAREPEEAHKEKPYRRPKFCRKMK
As for B2, the binding entry is given as “binds”.
